# Data taken from patent US5747452A, “Method of modulating tumor cell migration using fibronectin type III peptides” (La Jolla Cancer Research Foundation, priority 1995, dated 1998).
# System: fibronectin
# Test: Protein-protein binding assay: 125I-III1-E to coated fibronectin
# Parameters: species or system human
substance,measurement,setting,value
"III1 -E: Sequence ID No. 12; recombinant protein, residues 600 to 655 of human fibronectin, from pGEX-2T",number of high affinity sites in fibronectin in comparison to fibronectin as ligand,,1000 fold more
same,number of low affinity sites in fibronectin in comparison to fibronectin as ligand,,ten-fold more
same,number of high affinity binding sites,Scatchard analysis,1-2 binding sites per fibronectin dimer
same,number of low affinity binding sites,Scatchard analysis,approximately 10 binding sites per fibronectin dimer
